# Experimental data: PubChem BioAssay AID1159578 (Peter MacCallum Cancer Centre, 2015)
# Aim: 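siRNA pools altering how lymphatic endothelial cells close a scratch wound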 (primary screen)
# Cells: human lymphatic endothelial cells
# Reagents: siRNA pool against human genes, 40 nM
# Time to read-out: 48 h after transfection
# Measurement: 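High-content imaging of dye-stained cells in a scratch assay measures filled wound area and nuclei per well; duplicate means given as ratio to mock and robust z-score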
# Reading the numbers: migration robust z-score: higher = faster migration into the scratch; nuclei per well: higher = more cells in the well
# Hit rule: 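Migration changed when robust z exceeds 2 or falls below -2 and mean nuclei number is at least 3300; otherwise not called changed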
# Calls: active = migration changed; inactive = no migration change, or too few cells
# Here is one part, drawn at random, of about 18,000 reagents tested. Of all reagents, about 1,030 (5.7%) are marked active. 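Inactive calls also include pools with fewer than 3300 nuclei, whose migration was not assessed.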 Raw values are not corrected between plates. Entries without a mark were called inactive. Not all columns of the deposit are shown. No sequences are given here.
The first 2 records, ahead of the listing:
Gene,migration robust z-score,"nuclei per well, duplicate mean"
KCTD15,-1.86,4718
GPR52,-0.39,6221

The list itself, repeating the preview:
Gene,migration robust z-score,"nuclei per well, duplicate mean"
KCTD15,-1.86,4718
GPR52,-0.39,6221
CRIPT,-3.16 (active),4967
MYO7B,0.39,7248
INTS2,-1.3,5351
SORCS2,-0.76,5891
OR5P3,1.11,5814
TCF3,0,5614
CHST1,-1.43,3382
NOTCH2NLA,-0.58,5433
TMT1A,-0.67,4524
RASD1,-0.42,5530
AMELY,-1.09,4862
FPR2,0.88,4730
TUSC3,0,6482
MEPCE,-0.66,4914
PGBDF,-0.06,6530
OSGEP,-0.62,5428
SERPINB6,-0.47,5767
SMAGP,0.45,5137
MANSC1,-0.84,4964
RAB3GAP1,1.49,6503
TTC23,-0.76,7110
